Reference: patent publication US20240252463A1, “METHODS OF TREATING FIBROTIC PATHOLOGIES” (Mayo Foundation for Medical Education and Research, priority 2018, published 2024)

How the values were obtained:
YAP/TAZ = YAP/TAZ nuclear localization (immunofluorescence, automated imaging) in IPF patient-derived lung fibroblasts; format: cell-based, human; settings: 10 μM, treated 2 hours prior to fixation
Description: FIGS. 27A, 27C, 27E Dopamine Receptor D1 agonism blocks YAP/TAZ nuclear localization. 27A. D1 receptor selective agonists inhibit YAP/TAZ nuclear localization. IPF patient-derived lung fibroblasts cells treated 2 hours prior to fixation with diverse dopaminergic agonists (10 μM). N=4 different patient samples. % nuclear localization of YAP/TAZ was determined using automated imaging software. Scale bar represents 100 μm. 27C. cAMP measured in IPF patient-derived fibroblasts treated for 20 minutes with DHX. N=3. 27E. […] N=3 (****p<0.0001 vs. 0.1% DMSO vehicle control).
(§1) ImmunofluorescenceMicroscopy: Cells were plated into 96 well plates (Corning 3603) in their specific growth media and allowed to attach (8 hours). Media was then exchanged for the indicated conditions for each experiment. Cells were fixed in 3.7% formalin (Sigma-Aldrich), permeabilized in 0.25% Triton X-100 (Sigma-Aldrich) and then blocked with 1% BSA for 1 h. Cells or tissue sections were incubated overnight with mouse monoclonal antibody against αSMA (Sigma-Aldrich F3777), and/or a rabbit monoclonal antibody against YAP/TAZ (Cell Signaling D24E4) diluted 1:200 in PBS with 1% BSA. Cells were then washed and exposed to flourescence-conjugated secondary antibodies (Invitrogen) diluted 1:1000 and DAPI (Thermo Fisher Scientific). Images were taken with a Cytation5 (BioTek) microscope. For scoring αSMA positive cells (FIG. 3b), an observer blinded to the treatment conditions counted αSMA-positive cells using a visual threshold for bright fibrous staining; a minimum of 200 cells was counted for each condition. YAP/TAZ localization was quantified (FIG. 2, 6, 8) using Gen5 (Biotek) software. Images were taken at 4× magnification of both DAPI and YAP/TAZ staining. Objects were identified using the DAPI channel and a subpopulation of YAP/TAZ nuclear positive cells was counted based on nuclei where the average pixel intensity of the YAP/TAZ channel was greater than 85% of the average pixel intensity of all the nuclei in the control treated cells. Quantification of double positive (YAP/TAZ and αSMA) cells from lung tissue sections (FIG. 4d) was performed similarly; however separate thresholds were established for both YAP/TAZ and αSMA. A minimum of 4000 cells was quantified for each mouse.

αSMA = αSMA intensity (fibroblast activation) in IPF patient-derived lung fibroblasts + TGFβ; format: cell-based, human; settings: 1 μM + TGFβ, treated for 72 hours
Description: FIGS. 28A-28E DHX reverses fibroblast matrix deposition, contraction and stiffening. 28A. […] N=3 (****p<0.0001, ***p<0.001, **p<0.01 vs. 0.1% DMSO vehicle control) 28D. DHX and YAP/TAZ siRNA modulate matrix crosslinking and degradation gene programs. IPF fibroblasts treated 24 hours with 2 ng/mL TGFβ+/−10 μM DHX or YAP and TAZ siRNA (>90% knockdown). N=3. Heat map indicates % change relative to unstimulated controls. 28E. DHX reverses extracellular matrix stiffening. IPF patient derived fibroblasts and their cell-derived matrices were characterized by AFM microindentation using a spherical tip after 72 hours, then treated +/−10 μM DHX in matrix deposition media for additional 72 hours and re-characterized. N=5 different patient samples. (*p<0.05 vs. 0.1% DMSO vehicle control).
as §1

CCCN1CCC[C@@H]2Cc3n[nH]cc3C[C@H]21.Cl [(−)-Quinpirole•HCl, (−)-Quinpirole]
Nuclear localization (% of total cells) IPF-1 (YAP/TAZ; patient sample IPF-1): 80.12 % of total cells | Nuclear localization (% of total cells) IPF-2 (YAP/TAZ; patient sample IPF-2): 73.15 % of total cells | Nuclear localization (% of total cells) IPF-3 (YAP/TAZ; patient sample IPF-3): 80.54 % of total cells | Nuclear localization (% of total cells) IPF-4 (YAP/TAZ; patient sample IPF-4): 68.54 % of total cells | αSMA intensity (% of DMSO control) IPF-1 (αSMA; patient sample IPF-1): 84.61 % of DMSO control | αSMA intensity (% of DMSO control) IPF-2 (αSMA; patient sample IPF-2): 67.1295 % of DMSO control | αSMA intensity (% of DMSO control) IPF-3 (αSMA; patient sample IPF-3): 85.41 % of DMSO control | αSMA intensity (% of DMSO control) IPF-4 (αSMA; patient sample IPF-4): 95.1307 % of DMSO control
